Source: patent US20070083677A1, “Valves, devices, and methods for endobronchial therapy” (Nektar Therapeutics, priority 2005, published 2007)

Assay: 5 day use life study: antibiotic delivered through valve and adapter under simulated ventilator conditions (jet nebulizer, cloverleaf valve)
Details: for % CONTENT (%), Adapter / CONTENT [mg], Adapter: Final Adapter; for MEAN % CONTENT (%), Inspiratory / MEAN % CONTENT (%), Nebulizer / MEAN CONTENT [mg], Inspiratory / MEAN CONTENT [mg], Nebulizer: mean of Day 1, 3, 5
[1] = Device 8022B, in Quarter Normal Saline

Compound | % CONTENT (%), Adapter (Device 8022A, in WFI) [%] | CONTENT [mg], Adapter (Device 8022A, in WFI) [mg] | MEAN % CONTENT (%), Inspiratory (Device 8022A, in WFI) [%] | MEAN % CONTENT (%), Nebulizer (Device 8022A, in WFI) [%] | MEAN CONTENT [mg], Inspiratory (Device 8022A, in WFI) [mg] | CONTENT [mg], Nebulizer (Device 8022B, in Quarter Normal Saline, Day 1) [mg] | CONTENT [mg], Nebulizer (Device 8022B, in Quarter Normal Saline, Day 5) [mg] | % CONTENT (%), Adapter [1] [%] | CONTENT [mg], Adapter [1] [mg] | MEAN % CONTENT (%), Nebulizer [1] [%] | MEAN CONTENT [mg], Inspiratory [1] [mg] | MEAN CONTENT [mg], Nebulizer [1] [mg] | MEAN CONTENT [mg], Nebulizer (Device 8022A, in WFI) [mg] | % CONTENT (%), Adapter (Device 8022B, in WFI) [%] | CONTENT [mg], Adapter (Device 8022B, in WFI) [mg] | MEAN % CONTENT (%), Inspiratory (Device 8022B, in WFI) [%] | MEAN % CONTENT (%), Nebulizer (Device 8022B, in WFI) [%] | MEAN CONTENT [mg], Inspiratory (Device 8022B, in WFI) [mg] | MEAN CONTENT [mg], Nebulizer (Device 8022B, in WFI) [mg]
CN[C@H](CC(C)C)C(=O)N[C@H]1C(=O)N[C@@H](CC(N)=O)C(=O)N[C@H]2C(=O)N[C@H]3C(=O)N[C@H](C(=O)N[C@H](C(=O)O)c4cc(O)cc(O)c4-c4cc3ccc4O)[C@H](O)c3ccc(c(Cl)c3)Oc3cc2cc(c3O[C@@H]2O[C@H](CO)[C@@H](O)[C@H](O)[C@H]2O[C@H]2C[C@](C)(N)[C@H](O)[C@H](C)O2)Oc2ccc(cc2Cl)[C@H]1O [Vancomycin, vancomycin] | 0.5 | 2.7 | 16.1 | 37.2 | 96.6 | 275.9 | 290.3 | 0.1 | 0.3 | 44.5 | 72.5 | 266.9 |  |  |  |  |  |  | 
gentamicin | 0.0 | 0.2 | 15.8 | 31.7 | 95.0 |  |  |  |  |  |  |  | 190.5 | 0.1 | 0.3 | 16.5 | 38.0 | 99.0 | 228.2
